From PubChem BioAssay AID493027 (The Scripps Research Institute Molecular Screening Center, 2011)
Out of some 2,000 compounds screened, about 45 (2%) were called active.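 Rule for the calls: active = inhibition above the screen-wide mean inhibition plus 3 SD (cut at about 44% in these data); inactive = the rest.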 Some of the results follow.

Sequences of proteins named here, by UniProt entry; tags and fusion partners are left off. A change or cut given only in a name is not applied to a line headed by its entry.
UniProt O60240: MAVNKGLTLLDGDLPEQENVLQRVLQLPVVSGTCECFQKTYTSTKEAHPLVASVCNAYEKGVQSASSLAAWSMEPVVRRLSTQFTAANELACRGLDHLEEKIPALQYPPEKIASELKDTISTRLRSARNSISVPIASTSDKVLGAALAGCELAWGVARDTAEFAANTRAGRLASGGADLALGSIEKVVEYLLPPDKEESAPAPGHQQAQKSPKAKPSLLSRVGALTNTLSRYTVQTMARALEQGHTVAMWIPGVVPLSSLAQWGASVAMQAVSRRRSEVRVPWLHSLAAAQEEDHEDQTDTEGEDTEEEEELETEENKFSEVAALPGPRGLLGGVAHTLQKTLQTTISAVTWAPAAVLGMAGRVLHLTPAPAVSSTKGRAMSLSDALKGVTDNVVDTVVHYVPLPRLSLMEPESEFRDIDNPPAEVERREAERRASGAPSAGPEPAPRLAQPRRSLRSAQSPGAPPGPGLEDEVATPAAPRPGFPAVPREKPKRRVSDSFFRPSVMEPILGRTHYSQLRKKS
UniProt Q8WTS1: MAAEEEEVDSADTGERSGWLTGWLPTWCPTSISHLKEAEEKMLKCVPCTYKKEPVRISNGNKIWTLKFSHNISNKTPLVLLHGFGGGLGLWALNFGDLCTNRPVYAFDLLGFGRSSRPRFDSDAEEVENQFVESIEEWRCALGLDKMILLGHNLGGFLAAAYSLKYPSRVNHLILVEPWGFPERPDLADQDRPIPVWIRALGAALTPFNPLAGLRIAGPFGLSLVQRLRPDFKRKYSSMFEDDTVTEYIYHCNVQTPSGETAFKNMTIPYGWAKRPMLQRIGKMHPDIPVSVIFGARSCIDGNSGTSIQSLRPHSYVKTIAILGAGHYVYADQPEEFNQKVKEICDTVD

Target: Perilipin-1 (Homo sapiens) + 1-acylglycerol-3-phosphate O-acyltransferase ABHD5 (Homo sapiens) (UniProt O60240+Q8WTS1)
Assay: ABHD5-PLIN1 interaction inhibitors, pilot screen, cell lysate, split luciferase complementation, luminescence, NIH validation set (AID 493027);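 note: 0% = DMSO wells with the 100% control not disclosed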
Conditions: split G. princeps luciferase complementation, 4 h; at 7.9 µM, stronger effect = higher value

inhibition, inactive:
O=C(Nc1ccc(Cl)cn1)Nc1ccccc1Cl -3.38%
C[N+](C)(C)CCCCCCCCCC[N+](C)(C)C -5.57%
O=C(O)/C=C/c1ccc(O)c(O)c1 -2.22%
O=C(/C=C/c1ccco1)N1CCN(c2ccccc2)CC1 4.55%
CN1C(=O)C(O)(CC(=O)c2ccccc2O)c2cc(Br)ccc21 (stereo not drawn) 5.1%
COc1cc2c(cc1OC)C(=S)NC(C)(C)C2 2.14%
COc1ccc(C2NC(=O)c3ccccc3N2)cc1OC (stereo not drawn) -0.79%
O=C(O)C1Sc2[nH]c(=O)sc2C2c3ccc(O)cc3OC(=O)C12 (stereo not drawn) -6.65%
Fc1ccc(NC(=S)Nc2ccccc2Cl)cc1 -9.16%
CC(=O)OC[C@H]1O[C@@H](n2ncc(=O)[nH]c2=O)[C@H](OC(C)=O)[C@@H]1OC(C)=O 1.76%
COc1ccc(C(=O)Oc2ccc3c(C)cc(=O)oc3c2C(C)=O)cc1 0.69%
NS(=O)(=O)c1ccc(CNC(=O)c2cc(-c3ccccc3)nc3ccccc23)cc1 10.2%
COc1cc(OC)c(C2C(C#N)=C(N)OC3=C2C(=O)CC(C)(C)C3)cc1OC (stereo not drawn) -0.37%
O=C1C(=O)c2ccccc2C(O)=C1c1ccccc1F -3.35%
COCCOC(=O)c1c(C)oc2ccc(OCc3cc(C(=O)OC)oc3C)cc12 -4.12%
COc1cc(C(=O)NCCCCCC(=O)O)cc(OC)c1OC 1.01%
CCO/C([O-])=N/c1c[n+](N2CCOCC2)no1 -8.54%
COc1ccc(CCNc2ncnc3c2[nH]c2cc(OC)c(OC)cc23)cc1OC 4.41%
CCCCCC#CCC#CCC#CCC#CCCCC(=O)O 34.5%
Cc1cc(=O)oc2cc(OC(C)C(=O)NCC3CCCO3)ccc12 (stereo not drawn) 0.51%
CC1=C(/C=C/C(C)=C/C=C/C(C)=C/C(=O)O)C(C)(C)CCC1 6.99%
O=C(Nc1ccccc1)c1ccccc1CCc1ccccc1 -0.9%
Cc1ccc(CN2CCN(CCCc3ccccc3)CC2CCO)cc1 (stereo not drawn) -7.7%
CCN(Cc1cnn(C)c1)Cc1nc(C(c2ccccc2)c2ccccc2)no1 5.41%
Cc1[nH]c2ccccc2c1/C=C/c1nc2ccccc2c(=O)n1CCO 21%
COc1ccc2[nH]cc(C(=O)CCl)c2c1 11.6%
CCN1C(=O)C(CC(=O)Nc2ccc(F)cc2)N(Cc2ccco2)C1=S (stereo not drawn) 10.9%
Nc1cccc(C(=O)O)c1 -8.92%

Gathered by group: those above with a COOH group
inhibition, inactive:
O=C(O)/C=C/c1ccc(O)c(O)c1 -2.22%
O=C(O)C1Sc2[nH]c(=O)sc2C2c3ccc(O)cc3OC(=O)C12 (stereo not drawn) -6.65%
COc1cc(C(=O)NCCCCCC(=O)O)cc(OC)c1OC 1.01%
CCCCCC#CCC#CCC#CCC#CCCCC(=O)O 34.5%
CC1=C(/C=C/C(C)=C/C=C/C(C)=C/C(=O)O)C(C)(C)CCC1 6.99%
Nc1cccc(C(=O)O)c1 -8.92%
